# Reference: PMC7819943, “Rice protein-binding microarrays: a tool to detect cis-acting elements near promoter regions in rice”
# The list shows a part of the results.
# Molecular target: T1, OsSMF1 (Oryza sativa, UniProt Q6ZLB0 1-436)
# T1 sequence: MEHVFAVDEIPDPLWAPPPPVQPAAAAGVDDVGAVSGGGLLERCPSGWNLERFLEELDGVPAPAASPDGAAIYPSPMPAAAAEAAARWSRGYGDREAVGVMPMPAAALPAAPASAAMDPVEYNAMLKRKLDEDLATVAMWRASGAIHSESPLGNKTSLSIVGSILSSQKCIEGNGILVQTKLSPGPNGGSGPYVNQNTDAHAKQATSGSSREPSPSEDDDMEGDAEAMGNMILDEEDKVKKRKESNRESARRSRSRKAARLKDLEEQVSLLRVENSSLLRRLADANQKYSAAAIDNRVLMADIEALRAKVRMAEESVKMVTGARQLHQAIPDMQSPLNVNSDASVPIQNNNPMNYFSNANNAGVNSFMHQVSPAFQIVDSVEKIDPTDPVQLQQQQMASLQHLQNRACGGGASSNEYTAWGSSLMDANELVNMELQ
# Assay: protein-binding microarray (RPBM); PBS, 2% BSA, 51.3 ng/ul salmon testes DNA, 50 uM zinc acetate, 200 nM TF, 25 C, 1 h; high values mean tight binding
# Details: protein: recombinant; tags: N-terminal polyhistidine and DsRed monomer fusion (pET32a); chain copies: 2; label: CyDye5-dUTP incorporated in the synthesized complementary strand; 3' TTTTT single-stranded linker to array surface; dsDNA, one strand shown
# Method in brief: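 Transcription factors were made in E. coli BL21-CodonPlus as N-terminal fusions to a polyhistidine tag and DsRed, then purified on Ni–NTA. After primer extension with Cy5-dUTP and blocking with 2% BSA, a custom Agilent array was exposed for 1 h at 25 °C to 200 nM protein in PBS, 2% BSA, salmon testes DNA and 50 µM zinc acetate. Washed arrays were scanned on an Axon 4000B, and the binding signal is per-feature fluorescence intensity in arbitrary units.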
row,Sequence,binding signal
1,TATTAATTTCCAAATAAATTGCTATGTCAATGCCACGTCACGGAGTCACCTAGTGCAG,40900 fluorescence intensity (a.u.)
2,TAACATAATCCTCGAATTATTAATTAGTTAACTATAAGAGCGGAGTCACCTAGTGCAG,3440 fluorescence intensity (a.u.)
3,AACTATTGTCTATAAGCTCTTACACGTAGTATACTGCAGCCGGAGTCACCTAGTGCAG,3220 fluorescence intensity (a.u.)
4,AAAACATGCCTTACCACCTATCATTCGAGGCCACGTATGGCGGAGTCACCTAGTGCAG,7020 fluorescence intensity (a.u.)
5,TCACCGGTCACTGACACGTGGCCCCATAAACCGCCACCCTCGGAGTCACCTAGTGCAG,28900 fluorescence intensity (a.u.)
6,CCTTTTGTGACTTTTGTCCATCAATCATACAGTCACGCTCCGGAGTCACCTAGTGCAG,6680 fluorescence intensity (a.u.)
7,ACACTGCGTTTACGTGTTTGGCTTGGGTCTTGGGTCTTGGCGGAGTCACCTAGTGCAG,4640 fluorescence intensity (a.u.)
8,TGTATAGACTGACGATGGTGACGATGCGCTTGGAGGCGGCCGGAGTCACCTAGTGCAG,5340 fluorescence intensity (a.u.)
9,ACCAAAATTCTCATATCTCTCAACTAAACAAAACTCTTAACGGAGTCACCTAGTGCAG,3300 fluorescence intensity (a.u.)
10,ACGATAGATCGGGGATTTGAGATCTGAGGTGGCACGGACACGGAGTCACCTAGTGCAG,7620 fluorescence intensity (a.u.)
11,AGGGCACGTCATTATCGATCATCACCCGATCCATCGAGCACGGAGTCACCTAGTGCAG,4610 fluorescence intensity (a.u.)
12,AAAACTCCAACACGATAACGTGGCAGGCTGGCGGCGGGCCCGGAGTCACCTAGTGCAG,4250 fluorescence intensity (a.u.)
13,GCGGATGACGCGGCACGCTGGCTTGTGGGAGCACACAATCCGGAGTCACCTAGTGCAG,31500 fluorescence intensity (a.u.)
14,CAAACGGGACGAATTCCTAACCCTCGTCATCCGTCCCTTCCGGAGTCACCTAGTGCAG,4710 fluorescence intensity (a.u.)
15,CCGTGTGAATAATCTCGAGCTAGTACGATCCACACGATTACGGAGTCACCTAGTGCAG,3450 fluorescence intensity (a.u.)
16,TATAAAGAAAATATGTTGTTTTGGGTAGTGAGTAGTGACGCGGAGTCACCTAGTGCAG,3310 fluorescence intensity (a.u.)
17,CGTACGTAGCTAGTGCAGCACGTATTACTACTATAGTTGTCGGAGTCACCTAGTGCAG,3180 fluorescence intensity (a.u.)
18,GGACACCGTCTCAACATCCATCACCTCGTCGACGTCATTCCGGAGTCACCTAGTGCAG,7550 fluorescence intensity (a.u.)
19,CGCAACATCCGCGTCTGCCTCACTCCTGGCCAGCGCCTAGCGGAGTCACCTAGTGCAG,3190 fluorescence intensity (a.u.)
20,TTAATATACATATATATGTCACTCCTTGCTAGACACATGGCGGAGTCACCTAGTGCAG,5350 fluorescence intensity (a.u.)
21,CCTCTCCTCTCCATATGTTGAGTTGTTGACCTCCGGCGGCCGGAGTCACCTAGTGCAG,12800 fluorescence intensity (a.u.)

row,Sequence,binding signal
1,CGAAGTCGTGCTGCGCTCCGACTCAGCTGCATCGTCACTCCGGAGTCACCTAGTGCAG,5960 fluorescence intensity (a.u.)
2,CCTCAATTCAACCTGATGTCATACATCGAGTTGCATTGTCCGGAGTCACCTAGTGCAG,5440 fluorescence intensity (a.u.)
3,TCATTGCCACCTCTGTCATGTGTAAATGATGCTTCTATTTCGGAGTCACCTAGTGCAG,3300 fluorescence intensity (a.u.)
4,AGCTTACTATGATACCGATGAACACGTTATGACAACAAACCGGAGTCACCTAGTGCAG,3880 fluorescence intensity (a.u.)
5,GTAGGTTCCAGATATGTCCACGTCACCACAGAATGAAATGCGGAGTCACCTAGTGCAG,7710 fluorescence intensity (a.u.)
6,ATAAAGAATCTGAAGCTGAATAATTATAGCTTAGCTAACTCGGAGTCACCTAGTGCAG,28400 fluorescence intensity (a.u.)
7,TTTGGTCCCACTTATGGGCCCATTGTCAGTGCCAAACCTACGGAGTCACCTAGTGCAG,3310 fluorescence intensity (a.u.)
8,TCATCCATCAGATATCCTCCACGTGTTGTCCTCGATCCCGCGGAGTCACCTAGTGCAG,6770 fluorescence intensity (a.u.)
9,CGCCACGGCCCCGTCATCTCCATCCGCCTCTTCGGCACCACGGAGTCACCTAGTGCAG,7780 fluorescence intensity (a.u.)
10,GTGAAATCCGATTTGAATTTCGCGAAATCCAGTTTTCTTGCGGAGTCACCTAGTGCAG,3260 fluorescence intensity (a.u.)
11,CGGCATTGACCTGGTCTTTGTTCCACGTGGCGCTTAGGTGCGGAGTCACCTAGTGCAG,8840 fluorescence intensity (a.u.)
12,GACAAGCGTTGGCAGCTAGCTGCGCGCCTCCACGTTGTTCCGGAGTCACCTAGTGCAG,3660 fluorescence intensity (a.u.)
13,AAGTGGTGTCTGACCAGGAAATCACGAATTTGTCAACATGCGGAGTCACCTAGTGCAG,3520 fluorescence intensity (a.u.)
14,ATGGTCATGAGGAAGAAAAGTGGCACTTCACGGGCAACCCCGGAGTCACCTAGTGCAG,4260 fluorescence intensity (a.u.)
15,GAGGCGGCGGCGGAGAAGGTGAAGGAGATGAATAGGCTTCCGGAGTCACCTAGTGCAG,3170 fluorescence intensity (a.u.)
16,ATCATGTACATCTCATAGTCAACAATATTCATCACAATCTCGGAGTCACCTAGTGCAG,3640 fluorescence intensity (a.u.)
17,CTGTGTCATGGCATGGCCACCTCATCATTTGTTTTAGTCCCGGAGTCACCTAGTGCAG,8690 fluorescence intensity (a.u.)
18,ACGATATATTTTACTAATTAAAATGTACCGTGACTAAGCACGGAGTCACCTAGTGCAG,7460 fluorescence intensity (a.u.)
19,GACGATACTAGTACAGCATACATGTCGTGGCGTTCAACTTCGGAGTCACCTAGTGCAG,4620 fluorescence intensity (a.u.)
20,CCCTTGTCCATCCGCCAACGCCACGTCACCTCCTCCGCTACGGAGTCACCTAGTGCAG,52100 fluorescence intensity (a.u.)
21,GACCGAAGTCGCATACAAATGGGTGTGAGATTGTGAGAGACGGAGTCACCTAGTGCAG,4030 fluorescence intensity (a.u.)

# Laid out differently: results already given.
row	Sequence	binding signal
12	AAAACTCCAACACGATAACGTGGCAGGCTGGCGGCGGGCCCGGAGTCACCTAGTGCAG	4250 fluorescence intensity (a.u.)
13	GCGGATGACGCGGCACGCTGGCTTGTGGGAGCACACAATCCGGAGTCACCTAGTGCAG	31500 fluorescence intensity (a.u.)
